Laboratory results published in patent publication US20250269072A1, “PROCESSES FOR PREPARING RADIOLABELLED CONJUGATES” (CENTENARY INSTITUTE OF CANCER MEDICINE AND CELL BIOLOGY, priority 2021, published 2025).
At least one compound was matched to its structure with a doubt left.

Assay: Human radiation dosimetry estimated from rat biodistribution (OLINDA/EXM)
Type: in vivo, human (standard adult male)
Conditions: from rat data
Experimental: For the voiding bladder model it was assumed that patients would void 1 hour following administration.

## O=C(O)CNC(=O)[C@H](CSCC(=O)Nc1ccc([As](O)O)cc1)NC(=O)CC[C@H](NC(=O)CCC1C(=O)[O][68Ga]2[O]C(=O)CN3CCN(CCN1CC3)CC(=O)[O]2)C(=O)O (stereo partly drawn) [^68Ga-NODAGA-GSAO]
LLI Wall
  Photon dose: 5.095−03 mSv/MBq
Muscle
  Beta dose: 2.138−03 mSv/MBq
Testes
  Photon dose: 3.496−03 mSv/MBq
